These are yes or no findings as the source states them, for the method shown. Some results given as binding are weak or reduced against the parent protein; the word gives no strength. For some of these results: Where a sequence is shown, tags or fusion partners need not be part of it. Blank lines part the entries; values can stand above or below the binder they belong to.
What was measured:
[1] = target: full length mouse RANKL on HEK 293T cells (mouse) (UniProt O35235); experiment: binding of soluble OPG to fixed cells, bound OPG measured by ELISA of the cell lysate; differentiated MC3T3-E1 cells, or HEK 293T cells transfected with full length mouse or human RANKL; 1 M NaCl wash, fixed with 70% ethanol; 100 ng OPG in PBS with or without 1 uM S3-15, 30 min, 4 °C; only the binder purified
[2] = target: mRANKL on differentiated MC3T3-E1 cells (mouse (endogenous in MC3T3-E1)) (UniProt O35235); experiment: as above
[3] = target: T1, full length human RANKL on HEK 293T cells (human) (UniProt O14788); experiment: as above
T1 sequence: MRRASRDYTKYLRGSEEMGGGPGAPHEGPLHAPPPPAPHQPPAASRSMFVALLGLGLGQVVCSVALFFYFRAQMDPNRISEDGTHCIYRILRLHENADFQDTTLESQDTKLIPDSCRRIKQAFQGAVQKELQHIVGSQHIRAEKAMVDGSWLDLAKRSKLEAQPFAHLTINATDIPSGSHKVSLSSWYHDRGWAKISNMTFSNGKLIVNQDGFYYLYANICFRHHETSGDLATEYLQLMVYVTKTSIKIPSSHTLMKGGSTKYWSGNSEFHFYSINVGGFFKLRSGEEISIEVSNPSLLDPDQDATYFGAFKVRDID

Sequences of proteins named here, by UniProt entry; tags and fusion partners are left off.
UniProt O35235: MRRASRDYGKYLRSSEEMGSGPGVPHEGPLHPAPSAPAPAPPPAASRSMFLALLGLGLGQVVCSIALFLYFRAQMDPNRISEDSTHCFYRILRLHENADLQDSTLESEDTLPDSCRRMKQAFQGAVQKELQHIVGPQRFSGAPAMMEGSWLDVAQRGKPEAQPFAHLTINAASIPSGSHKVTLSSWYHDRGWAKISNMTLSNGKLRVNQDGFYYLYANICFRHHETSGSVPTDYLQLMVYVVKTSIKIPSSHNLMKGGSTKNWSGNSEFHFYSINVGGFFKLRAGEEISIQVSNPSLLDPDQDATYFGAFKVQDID

[4] = target: T2, human sRANKL with his-sumo tag (human) (UniProt O14788); experiment: pull-down; 200 ng his-sumo human sRANKL held on Ni gel; 100 ng Fc tag human OPG in PBS, 4 °C, 30 min, with S3-15 at 0, 10, 1 and 0.3 uM; bound OPG measured by OPG ELISA kit; both purified
T2 sequence: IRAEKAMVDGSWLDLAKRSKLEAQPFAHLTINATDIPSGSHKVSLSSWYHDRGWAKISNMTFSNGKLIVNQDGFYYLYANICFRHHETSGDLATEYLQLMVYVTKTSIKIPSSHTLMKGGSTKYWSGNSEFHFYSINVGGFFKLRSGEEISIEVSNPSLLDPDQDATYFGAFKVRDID

- binding [1]: binds
- binding [2]: binds
B1: mouse OPG (Sino, China) (receptor, UniProt O08712 22-401)
chain: ETLPPKYLHYDPETGHQLLCDKCAPGTYLKQHCTVRRKTLCVPCPDHSYTDSWHTSDECVYCSPVCKELQSVKQECNRTHNRVCECEEGRYLEIEFCLKHRSCPPGSGVVQAGTPERNTVCKKCPDGFFSGETSSKAPCIKHTNCSTFGLLLIQKGNATHDNVCSGNREATQKCGIDVTLCEEAFFRFAVPTKIIPNWLSVLVDSLPGTKVNAESVERIKRRHSSQEQTFQLLKLWKHQNRDQEMVKKIIQDIDLCESSVQRHLGHSNLTTEQLLALMESLPGKKISPEEIERTRKTCKSSEQLLKLLSLWRIKNGDQDTLKGLMYALKHLKTSHFPKTVTHSLRKTMRFLHSFTMYRLYQKLFLEMIGNQVQSVKISCL

- binding [3]: binds
B2: OPG added to HEK 293T cells with human RANKL (receptor, UniProt O08712 22-401)
chain: B1 chain

- binding [4]: binds
B3: Fc tag human OPG (Fc fusion, UniProt O00300 22-401)
chain: ETFPPKYLHYDEETSHQLLCDKCPPGTYLKQHCTAKWKTVCAPCPDHYYTDSWHTSDECLYCSPVCKELQYVKQECNRTHNRVCECKEGRYLEIEFCLKHRSCPPGFGVVQAGTPERNTVCKRCPDGFFSNETSSKAPCRKHTNCSVFGLLLTQKGNATHDNICSGNSESTQKCGIDVTLCEEAFFRFAVPTKFTPNWLSVLVDNLPGTKVNAESVERIKRQHSSQEQTFQLLKLWKHQNKDQDIVKKIIQDIDLCENSVQRHIGHANLTFEQLRSLMESLPGKKVGAEDIEKTIKACKPSDQILKLLSLWRIKNGDQDTLKGLMHALKHSKTYHFPKTVTQSLKKTIRFLHSFTMYKLYQKLFLEMIGNQVQSVKISCL

Reference: paper PMC9468151, “Identification of a binding site on soluble RANKL that can be targeted to inhibit soluble RANK-RANKL interactions and treat osteoporosis” (Nature Communications, 2022)
